Laboratory results reported in patent US20190351012A1, “TARGETING OF INTERFERON-STIMULATED GENE EXPRESSION TO TREAT INTERFERONOPATHIES” (New York University, priority 2018, published 2019).
At least one compound was matched to its structure with a doubt left.

Tested on: ISG56, OAS2 and c-Myc mRNA in BT474 cells
Test: ISG and c-Myc mRNA in BT474 cells after geldanamycin exposure
Type: cell-based, human

Q: COC1=C2C[C@@H](C)C[C@H](OC)[C@H](O)[C@@H](C)/C=C(\C)[C@H](OC(N)=O)[C@@H](OC)/C=C\C=C(/C)C(=O)NC(=CC1=O)C2=O [geldanamycin] was tested. Which “rescue of ISG transcription from HDAC inhibition” value (geldanamycin 24 h, IFN-α plus TSA) did it give?
A: The value was “failed to rescue”.

Q: And the ISG expression (geldanamycin alone, IFN-α)?
A: The ISG expression was “partially inhibited”.
